Data reported in article PMC10539569.
Results are given in words; binding and its absence hold for the method and conditions named. In cells and extracts the contact can be indirect. Some binding calls cover weakened binding; strength is not graded here.

By UniProt entry, the sequences of proteins in these tests, tags left out.
UniProt P20700: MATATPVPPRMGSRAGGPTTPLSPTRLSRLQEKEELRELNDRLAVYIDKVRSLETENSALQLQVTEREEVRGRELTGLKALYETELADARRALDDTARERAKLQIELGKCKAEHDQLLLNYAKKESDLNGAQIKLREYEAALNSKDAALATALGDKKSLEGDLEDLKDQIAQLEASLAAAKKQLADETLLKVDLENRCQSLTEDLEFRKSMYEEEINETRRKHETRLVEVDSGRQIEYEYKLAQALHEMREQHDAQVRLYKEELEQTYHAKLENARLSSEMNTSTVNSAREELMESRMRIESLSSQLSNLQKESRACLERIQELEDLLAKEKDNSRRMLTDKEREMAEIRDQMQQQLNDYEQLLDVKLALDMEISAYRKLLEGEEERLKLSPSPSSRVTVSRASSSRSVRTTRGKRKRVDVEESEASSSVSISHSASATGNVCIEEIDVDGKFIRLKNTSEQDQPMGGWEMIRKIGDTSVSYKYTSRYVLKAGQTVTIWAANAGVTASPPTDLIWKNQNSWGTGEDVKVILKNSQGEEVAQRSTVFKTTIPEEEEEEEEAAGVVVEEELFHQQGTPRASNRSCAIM
UniProt Q9P2P5: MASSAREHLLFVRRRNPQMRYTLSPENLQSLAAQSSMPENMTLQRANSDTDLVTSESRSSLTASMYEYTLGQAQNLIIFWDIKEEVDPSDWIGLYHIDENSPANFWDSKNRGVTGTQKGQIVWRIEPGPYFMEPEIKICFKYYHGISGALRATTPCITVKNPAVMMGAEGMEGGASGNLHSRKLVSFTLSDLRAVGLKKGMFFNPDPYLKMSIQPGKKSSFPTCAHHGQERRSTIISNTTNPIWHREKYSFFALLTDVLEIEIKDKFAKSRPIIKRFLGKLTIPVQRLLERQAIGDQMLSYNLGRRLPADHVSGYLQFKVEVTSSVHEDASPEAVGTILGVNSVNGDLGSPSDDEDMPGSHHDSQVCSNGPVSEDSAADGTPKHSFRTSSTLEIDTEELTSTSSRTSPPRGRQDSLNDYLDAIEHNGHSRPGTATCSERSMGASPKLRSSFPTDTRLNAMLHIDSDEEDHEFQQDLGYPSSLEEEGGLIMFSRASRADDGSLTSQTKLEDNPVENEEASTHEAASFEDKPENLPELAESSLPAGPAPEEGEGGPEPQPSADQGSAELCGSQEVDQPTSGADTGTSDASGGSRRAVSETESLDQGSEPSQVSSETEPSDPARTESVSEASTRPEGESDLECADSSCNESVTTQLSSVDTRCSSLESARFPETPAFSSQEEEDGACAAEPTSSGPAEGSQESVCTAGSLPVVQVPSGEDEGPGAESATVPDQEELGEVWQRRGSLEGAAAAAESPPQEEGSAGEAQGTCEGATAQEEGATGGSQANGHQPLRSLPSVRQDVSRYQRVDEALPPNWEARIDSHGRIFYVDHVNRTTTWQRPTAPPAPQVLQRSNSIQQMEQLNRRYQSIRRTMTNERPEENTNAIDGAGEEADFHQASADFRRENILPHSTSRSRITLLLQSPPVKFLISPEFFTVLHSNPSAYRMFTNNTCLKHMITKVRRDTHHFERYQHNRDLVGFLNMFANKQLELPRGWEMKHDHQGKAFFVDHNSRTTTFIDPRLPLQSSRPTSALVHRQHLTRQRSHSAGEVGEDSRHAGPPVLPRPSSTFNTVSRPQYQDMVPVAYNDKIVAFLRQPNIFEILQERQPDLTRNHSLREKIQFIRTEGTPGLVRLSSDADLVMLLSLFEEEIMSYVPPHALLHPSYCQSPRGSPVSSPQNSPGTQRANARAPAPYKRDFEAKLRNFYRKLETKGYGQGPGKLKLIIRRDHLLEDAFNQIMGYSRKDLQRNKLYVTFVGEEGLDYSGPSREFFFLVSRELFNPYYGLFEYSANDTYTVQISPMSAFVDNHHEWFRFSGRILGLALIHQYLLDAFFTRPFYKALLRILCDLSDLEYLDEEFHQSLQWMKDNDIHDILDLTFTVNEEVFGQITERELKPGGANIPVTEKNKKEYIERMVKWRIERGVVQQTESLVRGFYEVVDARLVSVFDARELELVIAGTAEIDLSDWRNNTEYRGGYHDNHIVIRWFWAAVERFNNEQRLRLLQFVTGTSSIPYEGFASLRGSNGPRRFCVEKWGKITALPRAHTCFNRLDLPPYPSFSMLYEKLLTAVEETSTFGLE

Biological target: lamin B1 (human (endogenous in human CRC cell lines)) (UniProt P20700)
Experiment: co-IP; whole-cell extracts of CRC cells preincubated with protein A and G beads, then IgG or lamin B1 antibody overnight at 4 C; beads washed three times with Tris-HCl buffered saline; SDS-PAGE

binding: binds
Substance: HECW2 (HECT, C2 and WW domain containing E3 ubiquitin protein ligase 2) (from UniProt Q9P2P5 1-1572) (enzyme)
